Holding throughout (assay): condition: ∼7–15 nM (average cytoplasmic concentration); fluorescence correlation spectroscopy (FCS), photon-count rate per molecule (CPM); point FCS in the cytoplasm of living syncytial embryos at the beginning of nuclear cycle 12, 25.0-26.0°C; CPM compared with monomeric (mNG) and dimeric (dNG) NeonGreen controls
Common to all, as to settings: remark: other sources report otherwise

Assay [1] deals with T1, Asl-mNG (Drosophila melanogaster), Q9VNE4.
T1 chain: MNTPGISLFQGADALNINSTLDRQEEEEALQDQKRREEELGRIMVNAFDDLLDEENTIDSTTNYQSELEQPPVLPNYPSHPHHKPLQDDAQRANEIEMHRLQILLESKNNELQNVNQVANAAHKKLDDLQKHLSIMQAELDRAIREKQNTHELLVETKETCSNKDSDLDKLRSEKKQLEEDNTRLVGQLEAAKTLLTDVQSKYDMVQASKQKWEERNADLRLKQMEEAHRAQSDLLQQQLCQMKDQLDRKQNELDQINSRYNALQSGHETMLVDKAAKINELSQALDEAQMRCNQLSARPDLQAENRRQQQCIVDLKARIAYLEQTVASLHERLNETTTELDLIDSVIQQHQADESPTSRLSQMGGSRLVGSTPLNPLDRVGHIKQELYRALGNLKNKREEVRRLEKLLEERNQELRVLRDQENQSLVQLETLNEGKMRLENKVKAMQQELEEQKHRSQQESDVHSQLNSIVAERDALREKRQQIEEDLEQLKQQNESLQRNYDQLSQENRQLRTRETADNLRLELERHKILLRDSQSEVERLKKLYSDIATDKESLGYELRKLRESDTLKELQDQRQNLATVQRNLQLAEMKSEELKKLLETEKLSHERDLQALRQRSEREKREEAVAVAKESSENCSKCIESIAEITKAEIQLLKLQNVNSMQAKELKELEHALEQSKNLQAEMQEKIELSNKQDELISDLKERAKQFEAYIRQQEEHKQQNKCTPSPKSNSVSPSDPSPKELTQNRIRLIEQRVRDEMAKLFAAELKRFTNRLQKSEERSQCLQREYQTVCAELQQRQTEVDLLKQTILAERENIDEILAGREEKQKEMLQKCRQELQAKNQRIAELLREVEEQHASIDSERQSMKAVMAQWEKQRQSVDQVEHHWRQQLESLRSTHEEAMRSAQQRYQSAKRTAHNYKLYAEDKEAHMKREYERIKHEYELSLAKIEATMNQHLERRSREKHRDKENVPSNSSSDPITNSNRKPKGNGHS

For assay [2], the target named is T2, Sas-6-mNG (Drosophila melanogaster), Q9VAC8.
T2 chain: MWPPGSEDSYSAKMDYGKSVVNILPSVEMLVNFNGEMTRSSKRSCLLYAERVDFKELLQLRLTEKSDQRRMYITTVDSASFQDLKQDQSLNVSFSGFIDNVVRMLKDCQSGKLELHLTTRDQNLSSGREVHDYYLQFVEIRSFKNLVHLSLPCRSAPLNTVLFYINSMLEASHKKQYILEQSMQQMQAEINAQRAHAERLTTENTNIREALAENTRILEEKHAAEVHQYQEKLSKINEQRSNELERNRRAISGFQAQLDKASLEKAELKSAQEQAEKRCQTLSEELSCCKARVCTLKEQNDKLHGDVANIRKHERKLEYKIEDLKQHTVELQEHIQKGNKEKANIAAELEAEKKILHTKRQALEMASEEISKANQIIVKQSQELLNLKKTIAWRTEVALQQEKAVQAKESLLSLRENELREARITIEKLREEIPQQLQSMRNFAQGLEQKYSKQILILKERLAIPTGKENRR

Assay [3] deals with T3, mNG-Sas-6 (Drosophila melanogaster), Q9VAC8.
T3 chain: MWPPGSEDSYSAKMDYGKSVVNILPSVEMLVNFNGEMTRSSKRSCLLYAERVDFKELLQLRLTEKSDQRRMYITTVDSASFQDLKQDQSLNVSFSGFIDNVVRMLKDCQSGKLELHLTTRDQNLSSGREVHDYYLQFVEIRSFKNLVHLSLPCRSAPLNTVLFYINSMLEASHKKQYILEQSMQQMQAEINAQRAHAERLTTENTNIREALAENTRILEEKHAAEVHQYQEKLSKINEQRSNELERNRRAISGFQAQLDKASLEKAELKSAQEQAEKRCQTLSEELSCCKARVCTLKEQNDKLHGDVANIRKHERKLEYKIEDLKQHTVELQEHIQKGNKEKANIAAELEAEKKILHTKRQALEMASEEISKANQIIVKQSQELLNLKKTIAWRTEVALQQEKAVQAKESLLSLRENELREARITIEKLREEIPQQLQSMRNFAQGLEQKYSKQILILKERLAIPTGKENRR

The target in assay [4] is T4, Sas-4-mNG (Drosophila melanogaster), Q9VI72.
T4 chain: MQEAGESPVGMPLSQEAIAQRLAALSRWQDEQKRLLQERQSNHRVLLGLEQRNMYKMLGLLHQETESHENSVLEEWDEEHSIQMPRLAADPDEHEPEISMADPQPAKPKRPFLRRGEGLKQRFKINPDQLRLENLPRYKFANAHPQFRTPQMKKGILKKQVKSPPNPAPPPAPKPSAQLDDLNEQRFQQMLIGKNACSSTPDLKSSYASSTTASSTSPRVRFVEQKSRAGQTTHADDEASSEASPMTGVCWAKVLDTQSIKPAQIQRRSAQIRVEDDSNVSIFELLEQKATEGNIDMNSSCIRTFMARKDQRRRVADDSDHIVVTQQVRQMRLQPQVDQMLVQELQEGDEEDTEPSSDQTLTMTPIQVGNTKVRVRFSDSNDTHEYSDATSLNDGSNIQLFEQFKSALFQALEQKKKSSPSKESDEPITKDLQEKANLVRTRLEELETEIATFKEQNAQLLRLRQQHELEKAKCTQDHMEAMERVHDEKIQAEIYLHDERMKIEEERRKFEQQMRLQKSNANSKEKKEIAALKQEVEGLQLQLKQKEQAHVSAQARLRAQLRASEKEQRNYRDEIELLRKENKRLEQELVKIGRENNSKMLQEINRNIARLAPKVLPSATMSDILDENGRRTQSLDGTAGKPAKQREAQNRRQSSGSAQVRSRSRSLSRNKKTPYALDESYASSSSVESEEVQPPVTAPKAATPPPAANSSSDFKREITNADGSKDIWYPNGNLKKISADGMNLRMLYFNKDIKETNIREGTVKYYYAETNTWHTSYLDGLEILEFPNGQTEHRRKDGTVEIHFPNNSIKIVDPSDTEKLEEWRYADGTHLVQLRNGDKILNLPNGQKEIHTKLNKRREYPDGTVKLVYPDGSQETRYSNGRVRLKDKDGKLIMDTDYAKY

No constants are given. Whether binding was seen depends on the method and setting.

B1: Asl-mNG, Q9VNE4 1-994 (protein)
chain: MNTPGISLFQGADALNINSTLDRQEEEEALQDQKRREEELGRIMVNAFDDLLDEENTIDSTTNYQSELEQPPVLPNYPSHPHHKPLQDDAQRANEIEMHRLQILLESKNNELQNVNQVANAAHKKLDDLQKHLSIMQAELDRAIREKQNTHELLVETKETCSNKDSDLDKLRSEKKQLEEDNTRLVGQLEAAKTLLTDVQSKYDMVQASKQKWEERNADLRLKQMEEAHRAQSDLLQQQLCQMKDQLDRKQNELDQINSRYNALQSGHETMLVDKAAKINELSQALDEAQMRCNQLSARPDLQAENRRQQQCIVDLKARIAYLEQTVASLHERLNETTTELDLIDSVIQQHQADESPTSRLSQMGGSRLVGSTPLNPLDRVGHIKQELYRALGNLKNKREEVRRLEKLLEERNQELRVLRDQENQSLVQLETLNEGKMRLENKVKAMQQELEEQKHRSQQESDVHSQLNSIVAERDALREKRQQIEEDLEQLKQQNESLQRNYDQLSQENRQLRTRETADNLRLELERHKILLRDSQSEVERLKKLYSDIATDKESLGYELRKLRESDTLKELQDQRQNLATVQRNLQLAEMKSEELKKLLETEKLSHERDLQALRQRSEREKREEAVAVAKESSENCSKCIESIAEITKAEIQLLKLQNVNSMQAKELKELEHALEQSKNLQAEMQEKIELSNKQDELISDLKERAKQFEAYIRQQEEHKQQNKCTPSPKSNSVSPSDPSPKELTQNRIRLIEQRVRDEMAKLFAAELKRFTNRLQKSEERSQCLQREYQTVCAELQQRQTEVDLLKQTILAERENIDEILAGREEKQKEMLQKCRQELQAKNQRIAELLREVEEQHASIDSERQSMKAVMAQWEKQRQSVDQVEHHWRQQLESLRSTHEEAMRSAQQRYQSAKRTAHNYKLYAEDKEAHMKREYERIKHEYELSLAKIEATMNQHLERRSREKHRDKENVPSNSSSDPITNSNRKPKGNGHS
With B1, the binding entry in assay [1] is “no binding”.

B2: Sas-6-mNG, Q9VAC8 1-472 (protein)
chain: MWPPGSEDSYSAKMDYGKSVVNILPSVEMLVNFNGEMTRSSKRSCLLYAERVDFKELLQLRLTEKSDQRRMYITTVDSASFQDLKQDQSLNVSFSGFIDNVVRMLKDCQSGKLELHLTTRDQNLSSGREVHDYYLQFVEIRSFKNLVHLSLPCRSAPLNTVLFYINSMLEASHKKQYILEQSMQQMQAEINAQRAHAERLTTENTNIREALAENTRILEEKHAAEVHQYQEKLSKINEQRSNELERNRRAISGFQAQLDKASLEKAELKSAQEQAEKRCQTLSEELSCCKARVCTLKEQNDKLHGDVANIRKHERKLEYKIEDLKQHTVELQEHIQKGNKEKANIAAELEAEKKILHTKRQALEMASEEISKANQIIVKQSQELLNLKKTIAWRTEVALQQEKAVQAKESLLSLRENELREARITIEKLREEIPQQLQSMRNFAQGLEQKYSKQILILKERLAIPTGKENRR
As for B2, the binding entry in assay [2] was “no binding”.

B3: mNG-Sas-6, Q9VAC8 1-472 (protein)
chain: MWPPGSEDSYSAKMDYGKSVVNILPSVEMLVNFNGEMTRSSKRSCLLYAERVDFKELLQLRLTEKSDQRRMYITTVDSASFQDLKQDQSLNVSFSGFIDNVVRMLKDCQSGKLELHLTTRDQNLSSGREVHDYYLQFVEIRSFKNLVHLSLPCRSAPLNTVLFYINSMLEASHKKQYILEQSMQQMQAEINAQRAHAERLTTENTNIREALAENTRILEEKHAAEVHQYQEKLSKINEQRSNELERNRRAISGFQAQLDKASLEKAELKSAQEQAEKRCQTLSEELSCCKARVCTLKEQNDKLHGDVANIRKHERKLEYKIEDLKQHTVELQEHIQKGNKEKANIAAELEAEKKILHTKRQALEMASEEISKANQIIVKQSQELLNLKKTIAWRTEVALQQEKAVQAKESLLSLRENELREARITIEKLREEIPQQLQSMRNFAQGLEQKYSKQILILKERLAIPTGKENRR
For B3, the binding result in assay [3] is reported as “no binding”.

B4: Sas-4-mNG, Q9VI72 1-901 (protein)
chain: MQEAGESPVGMPLSQEAIAQRLAALSRWQDEQKRLLQERQSNHRVLLGLEQRNMYKMLGLLHQETESHENSVLEEWDEEHSIQMPRLAADPDEHEPEISMADPQPAKPKRPFLRRGEGLKQRFKINPDQLRLENLPRYKFANAHPQFRTPQMKKGILKKQVKSPPNPAPPPAPKPSAQLDDLNEQRFQQMLIGKNACSSTPDLKSSYASSTTASSTSPRVRFVEQKSRAGQTTHADDEASSEASPMTGVCWAKVLDTQSIKPAQIQRRSAQIRVEDDSNVSIFELLEQKATEGNIDMNSSCIRTFMARKDQRRRVADDSDHIVVTQQVRQMRLQPQVDQMLVQELQEGDEEDTEPSSDQTLTMTPIQVGNTKVRVRFSDSNDTHEYSDATSLNDGSNIQLFEQFKSALFQALEQKKKSSPSKESDEPITKDLQEKANLVRTRLEELETEIATFKEQNAQLLRLRQQHELEKAKCTQDHMEAMERVHDEKIQAEIYLHDERMKIEEERRKFEQQMRLQKSNANSKEKKEIAALKQEVEGLQLQLKQKEQAHVSAQARLRAQLRASEKEQRNYRDEIELLRKENKRLEQELVKIGRENNSKMLQEINRNIARLAPKVLPSATMSDILDENGRRTQSLDGTAGKPAKQREAQNRRQSSGSAQVRSRSRSLSRNKKTPYALDESYASSSSVESEEVQPPVTAPKAATPPPAANSSSDFKREITNADGSKDIWYPNGNLKKISADGMNLRMLYFNKDIKETNIREGTVKYYYAETNTWHTSYLDGLEILEFPNGQTEHRRKDGTVEIHFPNNSIKIVDPSDTEKLEEWRYADGTHLVQLRNGDKILNLPNGQKEIHTKLNKRREYPDGTVKLVYPDGSQETRYSNGRVRLKDKDGKLIMDTDYAKY
B4: the binding entry in assay [4] is reported as “no binding”.

Values taken from PMC9442473, “Centriole growth is limited by the Cdk/Cyclin-dependent phosphorylation of Ana2/STIL” (The Journal of Cell Biology, 2022).
